From patent US20180118821A1 (Eli Lilly, published 2018)
No constants are given. Whether binding was seen depends on the method and setting. Some results given as binding are weak or reduced against the parent protein; the word gives no strength.

Target: Cynomolgus monkey IL-33 (cynomolgus monkey)
Experiment: SPR (Biacore T100/T200), antibody captured on Protein A

binding: binds
B1: Antibody 43 (antibody, human IgG4 S228P, kappa, F234A L235A, V domains shown)
VH: EVQLVETGGGLIQPGGSLRLSCAASGFTFSFYAMSWVRQAPGKGLEWVSAISGSGGSTYYADSVKGRFTISRDNSKNTLYLQMNSLRAEDTAVYYCARTIHGIRAAYDAFIIWGQGTLVTVSS
VL: EIVLTQSPGTLSLSPGERATLSCRASQSVGINLSWYQQKPGQAPRLLIYGASHRLTGIPDRFSGSGSGTDFTLTISRLEPEDFAVYYCHQYSQPPPFTFGGGTKVEIKR
notes: Derived from Antibody 54 by engineering to reduce potential immunogenicity; expressed in CHO cells; also called Ab 43; Exemplified Antibody
